Data as given in PMC12607632.
No constants are given. Whether binding was seen depends on the method and setting. Some results given as binding are weak or reduced against the parent protein; the word gives no strength.

Biological target: Bsp22 of B. bronchiseptica RB50 with an optimized tetracysteine tag (TC-tag) between M138 and A139 (Bsp22^TC) (Bordetella bronchiseptica RB50) (UniProt Q9REZ7)
Assay: fluorescence microscopy after pulse-chase labelling with biarsenical dyes; Bb bsp22^TC cells in solution in reducing BLM, 1 µM ReAsH (pulse) then 1 µM FlAsH (chase), 37°C; wide-field microscopy and SIM

Bsp22 of B. bronchiseptica RB50 with an optimized tetracysteine tag (TC-tag) between M138 and A139 (Bsp22^TC) (from UniProt Q9REZ7 1-205)
binding: binds
